Measured data: PubChem BioAssay AID1224830 (NIAID, 2016)

- Test: 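Regulators of TLR4 signalling towards TNF-alpha in macrophage-like cells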 (primary screen)
- Cells: human THP-1 monocytic leukaemia cells, TNF dual-luciferase reporter clone, PMA-differentiated to macrophage-like cells
- Reagent: siRNA pool against human genes, 50 nM
- Timing: LPS for 4 h, given about 3 days after siRNA transfection
- Challenge: bacterial LPS (TLR4 ligand), 10 ng/ml
- Read-out: 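Ratio of firefly to renilla light, scaled to the plate median and expressed as a robust z-score per replicate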
- Scale: TNF reporter robust z-score: higher = stronger TNF reporter response to LPS
- Call rule: 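a well is active when its z-score exceeds 2.8 or falls below -1.5; control wells carry no call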
Shown is one part, drawn at random, of about 18,000 reagents. About 2,900 of them (16%) were called active. 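Calls are made per well; low scores hint the gene aids the LPS response, high scores that it dampens it.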 Repeated entries: four replicate wells of each siRNA pool.

The opening 4 entries, ahead of the listing:
no.	gene knocked down	TNF reporter robust z-score	outcome
1	CDK3 (cyclin dependent kinase 3)	-0.64	inactive
2	CDK3 (cyclin dependent kinase 3)	2.91	active
3	CDK3 (cyclin dependent kinase 3)	1.9	inactive
4	CDK3 (cyclin dependent kinase 3)	0.08	inactive

Results, repeating the preview:
no.	gene knocked down	TNF reporter robust z-score	outcome
1	CDK3 (cyclin dependent kinase 3)	-0.64	inactive
2	CDK3 (cyclin dependent kinase 3)	2.91	active
3	CDK3 (cyclin dependent kinase 3)	1.9	inactive
4	CDK3 (cyclin dependent kinase 3)	0.08	inactive
5	UMOD (uromodulin)	2.53	inactive
6	UMOD (uromodulin)	1.95	inactive
7	UMOD (uromodulin)	2.4	inactive
8	UMOD (uromodulin)	5.5	active
9	TRIM40 (tripartite motif containing 40)	3.16	active
10	TRIM40 (tripartite motif containing 40)	1.7	inactive
11	TRIM40 (tripartite motif containing 40)	0.34	inactive
12	TRIM40 (tripartite motif containing 40)	0.14	inactive
13	SURF2 (surfeit 2)	-0.58	inactive
14	SURF2 (surfeit 2)	-0.49	inactive
15	SURF2 (surfeit 2)	-0.08	inactive
16	SURF2 (surfeit 2)	-0.34	inactive
17	MARCHF9 (membrane associated ring-CH-type finger 9)	2.6	inactive
18	MARCHF9 (membrane associated ring-CH-type finger 9)	-1.33	inactive
19	MARCHF9 (membrane associated ring-CH-type finger 9)	1.03	inactive
20	MARCHF9 (membrane associated ring-CH-type finger 9)	2.58	inactive
21	NHERF2 (NHERF family PDZ scaffold protein 2)	-0.46	inactive
22	NHERF2 (NHERF family PDZ scaffold protein 2)	0.56	inactive
23	NHERF2 (NHERF family PDZ scaffold protein 2)	0.77	inactive
24	NHERF2 (NHERF family PDZ scaffold protein 2)	0.75	inactive
25	PAXBP1 (PAX3 and PAX7 binding protein 1)	-1.47	inactive
26	PAXBP1 (PAX3 and PAX7 binding protein 1)	-1.61	active
27	PAXBP1 (PAX3 and PAX7 binding protein 1)	-1.73	active
28	PAXBP1 (PAX3 and PAX7 binding protein 1)	-1.27	inactive
29	OR8H3 (olfactory receptor family 8 subfamily H member 3)	0.1	inactive
30	OR8H3 (olfactory receptor family 8 subfamily H member 3)	0.25	inactive
31	OR8H3 (olfactory receptor family 8 subfamily H member 3)	0.49	inactive
32	OR8H3 (olfactory receptor family 8 subfamily H member 3)	1.66	inactive
33	MPPED2 (metallophosphoesterase domain containing 2)	-0.98	inactive
34	MPPED2 (metallophosphoesterase domain containing 2)	0.13	inactive
35	MPPED2 (metallophosphoesterase domain containing 2)	-0.64	inactive
36	MPPED2 (metallophosphoesterase domain containing 2)	-0.88	inactive
37	HPN (hepsin)	0.49	inactive
38	HPN (hepsin)	1.69	inactive
39	HPN (hepsin)	1.81	inactive
40	HPN (hepsin)	1.18	inactive
41	HARS1 (histidyl-tRNA synthetase 1)	0.41	inactive
42	HARS1 (histidyl-tRNA synthetase 1)	0.2	inactive
43	HARS1 (histidyl-tRNA synthetase 1)	-0.52	inactive
44	HARS1 (histidyl-tRNA synthetase 1)	-0.18	inactive
45	EIF4A3 (eukaryotic translation initiation factor 4A3)	1.5	inactive
46	EIF4A3 (eukaryotic translation initiation factor 4A3)	1.76	inactive
47	EIF4A3 (eukaryotic translation initiation factor 4A3)	1.47	inactive
48	EIF4A3 (eukaryotic translation initiation factor 4A3)	1.16	inactive
49	IDUA (alpha-L-iduronidase)	0.6	inactive
50	IDUA (alpha-L-iduronidase)	0.43	inactive
51	IDUA (alpha-L-iduronidase)	0.93	inactive
52	IDUA (alpha-L-iduronidase)	1.23	inactive
53	F8A3 (coagulation factor VIII associated 3)	1.61	inactive
54	F8A3 (coagulation factor VIII associated 3)	1.77	inactive
55	F8A3 (coagulation factor VIII associated 3)	-0.04	inactive
56	F8A3 (coagulation factor VIII associated 3)	0.65	inactive
57	TH (tyrosine hydroxylase)	-0.04	inactive
58	TH (tyrosine hydroxylase)	0.53	inactive
59	TH (tyrosine hydroxylase)	1.09	inactive
60	TH (tyrosine hydroxylase)	1.12	inactive
61	OXCT2 (3-oxoacid CoA-transferase 2)	-0.1	inactive
62	OXCT2 (3-oxoacid CoA-transferase 2)	1.07	inactive
63	OXCT2 (3-oxoacid CoA-transferase 2)	0.18	inactive
64	OXCT2 (3-oxoacid CoA-transferase 2)	1.16	inactive
65	NPIPB15 (nuclear pore complex interacting protein family member B15)	-0.94	inactive
66	NPIPB15 (nuclear pore complex interacting protein family member B15)	-1.61	active
67	NPIPB15 (nuclear pore complex interacting protein family member B15)	-1.18	inactive
68	NPIPB15 (nuclear pore complex interacting protein family member B15)	-0.19	inactive
69	OSBPL5 (oxysterol binding protein like 5)	-0.94	inactive
70	OSBPL5 (oxysterol binding protein like 5)	-0.74	inactive
71	OSBPL5 (oxysterol binding protein like 5)	-1.13	inactive
72	OSBPL5 (oxysterol binding protein like 5)	-0.25	inactive
73	RB1CC1 (RB1 inducible coiled-coil 1)	0.36	inactive
74	RB1CC1 (RB1 inducible coiled-coil 1)	-0.28	inactive
75	RB1CC1 (RB1 inducible coiled-coil 1)	0.07	inactive
76	RB1CC1 (RB1 inducible coiled-coil 1)	0.16	inactive
